The supplement of paper PMC10849652
The list shows a part of the results.

Amino acid sequences for entries named in this document (tags omitted). A change or cut given only in a name is not applied to a line headed by its entry.
UniProt Q99623, whole entry, looked up: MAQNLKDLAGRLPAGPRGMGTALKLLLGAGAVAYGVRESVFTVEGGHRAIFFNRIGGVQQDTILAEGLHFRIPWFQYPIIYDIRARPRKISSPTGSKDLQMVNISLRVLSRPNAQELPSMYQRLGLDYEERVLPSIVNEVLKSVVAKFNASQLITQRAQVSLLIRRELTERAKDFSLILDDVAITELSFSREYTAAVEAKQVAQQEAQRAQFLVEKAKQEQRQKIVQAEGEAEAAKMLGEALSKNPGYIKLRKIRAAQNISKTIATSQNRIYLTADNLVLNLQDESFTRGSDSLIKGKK
UniProt Q8WUB8: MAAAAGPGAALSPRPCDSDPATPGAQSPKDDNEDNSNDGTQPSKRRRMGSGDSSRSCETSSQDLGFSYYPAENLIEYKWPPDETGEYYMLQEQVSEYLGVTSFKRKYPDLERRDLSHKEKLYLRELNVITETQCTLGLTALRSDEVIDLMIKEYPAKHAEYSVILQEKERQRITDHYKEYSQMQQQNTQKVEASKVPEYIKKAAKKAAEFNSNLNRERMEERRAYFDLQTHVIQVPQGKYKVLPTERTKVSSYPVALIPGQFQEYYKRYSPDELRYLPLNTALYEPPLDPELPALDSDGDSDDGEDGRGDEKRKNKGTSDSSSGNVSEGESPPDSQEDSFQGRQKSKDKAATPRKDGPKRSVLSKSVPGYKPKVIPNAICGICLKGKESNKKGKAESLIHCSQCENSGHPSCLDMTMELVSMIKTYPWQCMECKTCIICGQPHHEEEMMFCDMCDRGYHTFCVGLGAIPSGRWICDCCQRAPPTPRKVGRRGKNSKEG
UniProt Q8TBF5: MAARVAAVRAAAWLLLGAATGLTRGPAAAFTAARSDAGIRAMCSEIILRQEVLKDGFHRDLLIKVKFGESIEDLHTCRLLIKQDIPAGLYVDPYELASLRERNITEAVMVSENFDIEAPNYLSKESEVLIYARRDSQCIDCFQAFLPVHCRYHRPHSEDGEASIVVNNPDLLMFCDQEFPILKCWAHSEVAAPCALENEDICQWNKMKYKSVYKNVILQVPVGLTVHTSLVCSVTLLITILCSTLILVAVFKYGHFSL
UniProt Q13393: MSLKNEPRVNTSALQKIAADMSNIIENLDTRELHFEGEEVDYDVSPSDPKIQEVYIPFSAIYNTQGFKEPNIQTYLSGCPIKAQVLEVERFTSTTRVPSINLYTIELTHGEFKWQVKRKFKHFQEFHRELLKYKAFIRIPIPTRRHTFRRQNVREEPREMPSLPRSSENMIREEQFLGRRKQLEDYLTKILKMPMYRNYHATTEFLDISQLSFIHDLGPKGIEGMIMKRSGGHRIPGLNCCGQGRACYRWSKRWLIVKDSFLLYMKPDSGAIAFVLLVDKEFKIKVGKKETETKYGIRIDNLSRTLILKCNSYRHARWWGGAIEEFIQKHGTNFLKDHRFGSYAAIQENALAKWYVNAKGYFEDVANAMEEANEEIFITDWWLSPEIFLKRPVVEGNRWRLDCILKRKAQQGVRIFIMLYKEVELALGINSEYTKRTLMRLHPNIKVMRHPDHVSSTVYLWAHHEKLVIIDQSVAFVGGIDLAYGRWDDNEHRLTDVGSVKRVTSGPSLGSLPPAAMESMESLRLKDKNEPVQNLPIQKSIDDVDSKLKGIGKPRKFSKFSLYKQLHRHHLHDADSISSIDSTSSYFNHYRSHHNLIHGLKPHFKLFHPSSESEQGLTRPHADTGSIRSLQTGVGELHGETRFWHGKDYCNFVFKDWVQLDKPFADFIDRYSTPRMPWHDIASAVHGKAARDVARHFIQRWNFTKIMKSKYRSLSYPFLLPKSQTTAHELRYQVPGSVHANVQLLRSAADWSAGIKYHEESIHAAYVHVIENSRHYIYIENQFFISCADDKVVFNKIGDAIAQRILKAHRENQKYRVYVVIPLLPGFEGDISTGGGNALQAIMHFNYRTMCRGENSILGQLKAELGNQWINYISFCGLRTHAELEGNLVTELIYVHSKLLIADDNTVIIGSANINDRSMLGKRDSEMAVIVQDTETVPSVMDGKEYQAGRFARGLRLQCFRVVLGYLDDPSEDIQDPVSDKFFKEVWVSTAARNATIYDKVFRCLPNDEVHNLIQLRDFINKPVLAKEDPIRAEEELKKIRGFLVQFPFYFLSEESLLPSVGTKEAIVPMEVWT
UniProt Q9BRB3: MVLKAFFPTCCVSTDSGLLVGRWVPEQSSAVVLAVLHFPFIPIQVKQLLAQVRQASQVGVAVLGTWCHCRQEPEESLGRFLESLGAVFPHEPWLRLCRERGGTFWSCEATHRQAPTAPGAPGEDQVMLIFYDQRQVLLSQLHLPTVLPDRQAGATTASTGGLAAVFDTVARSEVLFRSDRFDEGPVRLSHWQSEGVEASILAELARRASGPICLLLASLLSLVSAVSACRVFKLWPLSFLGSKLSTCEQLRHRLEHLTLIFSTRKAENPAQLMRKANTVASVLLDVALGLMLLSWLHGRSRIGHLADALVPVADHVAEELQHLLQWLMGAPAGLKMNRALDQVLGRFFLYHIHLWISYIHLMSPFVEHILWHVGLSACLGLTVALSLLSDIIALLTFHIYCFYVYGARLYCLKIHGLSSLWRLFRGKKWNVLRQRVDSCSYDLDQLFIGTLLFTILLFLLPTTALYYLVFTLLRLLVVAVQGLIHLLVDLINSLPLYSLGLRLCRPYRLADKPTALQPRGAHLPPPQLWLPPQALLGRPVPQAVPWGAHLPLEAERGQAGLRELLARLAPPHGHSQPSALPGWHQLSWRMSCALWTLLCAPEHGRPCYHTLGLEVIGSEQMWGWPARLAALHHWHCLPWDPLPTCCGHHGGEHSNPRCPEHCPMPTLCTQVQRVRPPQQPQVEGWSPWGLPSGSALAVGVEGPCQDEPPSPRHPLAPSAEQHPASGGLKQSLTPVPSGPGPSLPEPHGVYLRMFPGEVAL
UniProt Q00169: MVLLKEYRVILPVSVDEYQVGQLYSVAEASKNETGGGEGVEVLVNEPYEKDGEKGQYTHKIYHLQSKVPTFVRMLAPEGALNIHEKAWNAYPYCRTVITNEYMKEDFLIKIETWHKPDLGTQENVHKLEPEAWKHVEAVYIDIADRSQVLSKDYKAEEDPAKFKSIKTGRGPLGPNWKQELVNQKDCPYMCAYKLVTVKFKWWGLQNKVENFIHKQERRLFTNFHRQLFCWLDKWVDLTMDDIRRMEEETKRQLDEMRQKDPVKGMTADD
UniProt Q9GZP4: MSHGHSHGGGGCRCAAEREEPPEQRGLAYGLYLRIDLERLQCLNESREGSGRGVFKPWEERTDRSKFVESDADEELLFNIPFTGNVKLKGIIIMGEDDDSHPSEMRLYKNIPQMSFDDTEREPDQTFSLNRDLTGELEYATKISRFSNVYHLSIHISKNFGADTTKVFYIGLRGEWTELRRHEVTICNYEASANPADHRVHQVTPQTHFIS
UniProt Q9BZM1: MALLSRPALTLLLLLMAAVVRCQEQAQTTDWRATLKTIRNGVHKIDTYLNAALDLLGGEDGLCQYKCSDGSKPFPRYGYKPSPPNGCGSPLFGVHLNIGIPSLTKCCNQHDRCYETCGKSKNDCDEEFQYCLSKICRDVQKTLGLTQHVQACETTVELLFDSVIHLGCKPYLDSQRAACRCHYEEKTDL
UniProt Q99755: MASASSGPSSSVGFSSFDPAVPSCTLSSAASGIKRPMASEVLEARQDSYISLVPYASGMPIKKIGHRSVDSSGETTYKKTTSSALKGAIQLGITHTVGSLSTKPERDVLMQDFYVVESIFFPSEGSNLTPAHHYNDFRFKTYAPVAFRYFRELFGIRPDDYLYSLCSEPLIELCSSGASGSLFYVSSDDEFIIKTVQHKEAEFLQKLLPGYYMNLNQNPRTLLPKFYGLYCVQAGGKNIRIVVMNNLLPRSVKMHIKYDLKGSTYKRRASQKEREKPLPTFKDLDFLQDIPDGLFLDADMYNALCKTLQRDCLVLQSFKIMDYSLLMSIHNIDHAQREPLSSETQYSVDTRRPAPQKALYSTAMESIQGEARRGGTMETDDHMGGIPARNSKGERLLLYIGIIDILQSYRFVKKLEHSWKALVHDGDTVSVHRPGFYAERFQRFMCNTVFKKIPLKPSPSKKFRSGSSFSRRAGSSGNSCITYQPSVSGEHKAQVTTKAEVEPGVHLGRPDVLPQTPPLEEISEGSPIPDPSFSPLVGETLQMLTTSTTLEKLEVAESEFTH
UniProt P60673: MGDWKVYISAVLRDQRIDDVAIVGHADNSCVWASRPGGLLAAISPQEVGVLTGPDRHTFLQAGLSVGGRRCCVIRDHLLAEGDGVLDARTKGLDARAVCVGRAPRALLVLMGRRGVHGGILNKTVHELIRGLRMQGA
UniProt A6NDG6: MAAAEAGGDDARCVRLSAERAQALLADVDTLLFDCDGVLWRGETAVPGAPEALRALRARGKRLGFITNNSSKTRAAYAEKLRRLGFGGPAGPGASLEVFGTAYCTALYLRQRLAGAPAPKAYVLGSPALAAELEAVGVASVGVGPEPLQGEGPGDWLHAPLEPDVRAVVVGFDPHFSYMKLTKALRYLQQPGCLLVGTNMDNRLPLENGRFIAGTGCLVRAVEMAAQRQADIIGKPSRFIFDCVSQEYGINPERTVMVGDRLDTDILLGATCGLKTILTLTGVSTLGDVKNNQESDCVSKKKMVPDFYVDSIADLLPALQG
UniProt Q99570, whole entry, looked up: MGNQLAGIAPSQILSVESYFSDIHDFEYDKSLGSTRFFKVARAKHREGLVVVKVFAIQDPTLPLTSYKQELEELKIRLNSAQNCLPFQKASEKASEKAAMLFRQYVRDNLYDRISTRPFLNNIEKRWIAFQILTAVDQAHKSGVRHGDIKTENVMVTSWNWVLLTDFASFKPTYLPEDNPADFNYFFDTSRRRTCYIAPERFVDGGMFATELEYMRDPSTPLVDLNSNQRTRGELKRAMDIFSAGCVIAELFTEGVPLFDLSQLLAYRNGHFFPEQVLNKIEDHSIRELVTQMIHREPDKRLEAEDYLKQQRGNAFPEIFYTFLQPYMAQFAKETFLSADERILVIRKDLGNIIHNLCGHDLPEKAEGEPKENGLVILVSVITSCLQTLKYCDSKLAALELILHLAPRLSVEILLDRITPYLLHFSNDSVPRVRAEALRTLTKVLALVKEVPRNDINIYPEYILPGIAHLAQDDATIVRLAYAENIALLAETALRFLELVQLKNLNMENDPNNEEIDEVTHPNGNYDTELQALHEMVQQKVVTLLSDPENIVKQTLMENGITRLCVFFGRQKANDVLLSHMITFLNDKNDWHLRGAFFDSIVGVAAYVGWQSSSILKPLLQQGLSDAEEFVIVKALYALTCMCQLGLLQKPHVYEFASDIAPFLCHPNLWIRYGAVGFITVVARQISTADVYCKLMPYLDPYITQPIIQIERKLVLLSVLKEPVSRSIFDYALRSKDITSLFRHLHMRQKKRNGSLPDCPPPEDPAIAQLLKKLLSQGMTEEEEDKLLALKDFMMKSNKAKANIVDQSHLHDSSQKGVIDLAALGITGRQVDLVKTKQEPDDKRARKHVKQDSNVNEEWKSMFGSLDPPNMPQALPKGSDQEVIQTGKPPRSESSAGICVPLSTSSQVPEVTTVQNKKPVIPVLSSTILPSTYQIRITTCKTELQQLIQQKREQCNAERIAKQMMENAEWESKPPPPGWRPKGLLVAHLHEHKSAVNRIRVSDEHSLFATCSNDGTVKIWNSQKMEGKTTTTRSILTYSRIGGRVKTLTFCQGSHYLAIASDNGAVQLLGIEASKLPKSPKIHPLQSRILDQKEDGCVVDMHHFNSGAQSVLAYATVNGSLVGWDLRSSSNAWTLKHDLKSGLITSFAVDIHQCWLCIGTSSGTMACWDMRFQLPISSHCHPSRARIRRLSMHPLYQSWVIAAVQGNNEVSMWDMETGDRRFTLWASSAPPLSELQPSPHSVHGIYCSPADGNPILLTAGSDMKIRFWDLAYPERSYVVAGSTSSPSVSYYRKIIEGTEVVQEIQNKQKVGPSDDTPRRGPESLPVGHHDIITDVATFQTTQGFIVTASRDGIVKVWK
UniProt Q16875: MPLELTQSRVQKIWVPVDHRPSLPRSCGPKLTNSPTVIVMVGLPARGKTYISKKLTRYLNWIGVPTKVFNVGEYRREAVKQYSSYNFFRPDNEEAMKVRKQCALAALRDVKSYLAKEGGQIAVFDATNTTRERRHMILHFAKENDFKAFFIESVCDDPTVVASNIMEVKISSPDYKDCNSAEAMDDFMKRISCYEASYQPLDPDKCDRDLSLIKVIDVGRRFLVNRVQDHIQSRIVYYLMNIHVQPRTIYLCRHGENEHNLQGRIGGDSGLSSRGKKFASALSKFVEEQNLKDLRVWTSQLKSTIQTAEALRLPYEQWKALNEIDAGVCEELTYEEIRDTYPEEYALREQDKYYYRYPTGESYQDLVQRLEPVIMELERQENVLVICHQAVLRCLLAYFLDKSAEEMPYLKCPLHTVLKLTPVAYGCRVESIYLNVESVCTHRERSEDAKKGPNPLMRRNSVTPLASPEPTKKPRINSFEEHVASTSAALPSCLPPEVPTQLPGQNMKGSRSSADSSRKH

Legend:
Assay in all cases: log2 fold change, soluble protein after heating vs DMSO (PISA); higher = thermal stabilisation; K562 cells, 10 uM, 30 min; active = over 0.2 and 3.5 SD of the protein, either way, in both replicates (recomputed)
saracatinib = compound: CN1CCN(CCOc2cc(OC3CCOCC3)c3c(Nc4c(Cl)ccc5c4OCO5)ncnc3c2)CC1 [saracatinib]
Outline: (§1)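 K562 cells at 2×10^6 cells/mL were given 10 μM compound for 30 min. Aliquots then went through 3 min of heating across 48°C-58°C, were pooled, and were extracted in PBS with 0.5% NP-40 at 4°C, and the supernatant after 21,000xg for 90 min was quantified by TMTpro 16plex LC-MS/MS with channel sums equalised. Thermal stability relative to control samples, from duplicates, is given as log2 fold change.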

sotrastaurin = compound: CN1CCN(c2nc(C3=C(c4c[nH]c5ccccc45)C(=O)NC3=O)c3ccccc3n2)CC1 [sotrastaurin]
Outline: as §1

alvocidib = compound: CN1CC[C@H](c2c(O)cc(O)c3c(=O)cc(-c4ccccc4Cl)oc23)[C@H](O)C1 [alvocidib]
Outline: as §1

Tubastatin A = compound: CN1CCc2c(c3ccccc3n2Cc2ccc(C(=O)NO)cc2)C1 [Tubastatin A]
Outline: as §1

[1] = compound: CNC(=O)C1=CC=CC=C1NC2=NC(=NC=C2Cl)NC3=C(C=C(C=C3)N4CCOCC4)OC
Outline: as §1

defactinib = compound: CNC(=O)c1ccc(Nc2ncc(C(F)(F)F)c(NCc3nccnc3N(C)S(C)(=O)=O)n2)cc1 [defactinib]
Outline: as §1

rucaparib = compound: CNCc1ccc(-c2[nH]c3cc(F)cc4c3c2CCNC4=O)cc1 [rucaparib]
Outline: as §1

[2] = compound: CNc1nc(-c2ccc3c(N)n[nH]c3c2)cc(N2C[C@@H](C(=O)NC3CCCCC3)CC[C@H]2C)n1
Outline: as §1

encorafenib = compound: COC(=O)N[C@@H](C)CNc1nccc(-c2cn(C(C)C)nc2-c2cc(Cl)cc(NS(C)(=O)=O)c2F)n1 [encorafenib]
Outline: as §1

[3] = compound: COC(=O)[C@H](CCSC)NC(=O)C1=C(C=C(C=C1)NC[C@H](CS)N)C2=CC=CC=C2
Outline: as §1

Measured: log2 fold change

PHB2 (UniProt Q99623)
inactive: saracatinib 0.003 | sotrastaurin 0.022 | alvocidib 0.011 | Tubastatin A -0.02 | [1] 0.012 | defactinib 0.01 | rucaparib -0.037 | [2] -0.043 | encorafenib -0.019 | [3] 0.028

PHF10 (UniProt Q8WUB8)
inactive: saracatinib 0.041 | sotrastaurin 0.054 | alvocidib -0.163 | Tubastatin A -0.093 | [1] 0.225 | defactinib -0.044 | rucaparib 0.067 | [2] -0.107 | encorafenib -0.086 | [3] -0.001

PGLS (UniProt O95336)
inactive: saracatinib -0.036 | sotrastaurin 0.026 | alvocidib -0.082 | Tubastatin A 0.043 | [1] -0.033 | defactinib -0.064 | rucaparib -0.02 | [2] -0.07 | encorafenib -0.061 | [3] 0.146

PIGX isoform 2 (UniProt Q8TBF5)
inactive: saracatinib 0.118 | sotrastaurin -0.045 | alvocidib -0.119 | Tubastatin A -0.07 | [1] 0 | defactinib 0.08 | rucaparib 0.051 | [2] -0.083 | encorafenib 0.104 | [3] -0.009

PLD1 (UniProt Q13393)
inactive: saracatinib -0.195 | sotrastaurin -0.194 | alvocidib 0.087 | Tubastatin A 0.122 | [1] 0.006 | defactinib 0.071 | rucaparib 0.125 | [2] 0.06 | encorafenib 0.089 | [3] -0.09

PHKB isoform 3 (UniProt Q93100)
inactive: saracatinib -0.081 | sotrastaurin 0.009 | alvocidib 0.061 | Tubastatin A -0.014 | [1] 0.065 | defactinib -0.015 | rucaparib 0.039 | [2] 0.016 | encorafenib 0.034 | [3] -0.028

PGS1 (UniProt Q32NB8)
inactive: saracatinib -0.066 | sotrastaurin -0.057 | alvocidib -0.048 | Tubastatin A 0.013 | [1] -0.028 | defactinib -0.199 | rucaparib -0.065 | [2] 0.06 | encorafenib 0.072 | [3] -0.014

PIGQ (UniProt Q9BRB3)
inactive: saracatinib -0.084 | sotrastaurin 0.087 | alvocidib -0.146 | Tubastatin A -0.274 | [1] -0.07 | defactinib -0.108 | rucaparib -0.165 | [2] 0.062 | encorafenib -0.106 | [3] -0.161

PITPNA (UniProt Q00169)
inactive: saracatinib -0.005 | sotrastaurin 0.014 | alvocidib -0.053 | Tubastatin A -0.019 | [1] -0.017 | defactinib -0.015 | rucaparib -0.071 | [2] -0.066 | encorafenib -0.028 | [3] 0.002

PGD (UniProt P52209)
inactive: saracatinib 0.024 | sotrastaurin 0.009 | alvocidib -0.055 | Tubastatin A -0.015 | [1] -0.024 | defactinib 0.013 | rucaparib -0.066 | [2] -0.008 | encorafenib -0.015 | [3] 0.012

PGAM1 (UniProt P18669)
inactive: saracatinib 0.046 | sotrastaurin 0.022 | alvocidib -0.043 | Tubastatin A -0.005 | [1] -0.001 | defactinib -0.014 | rucaparib 0.026 | [2] 0.009 | encorafenib -0.027 | [3] 0.018

PITHD1 (UniProt Q9GZP4)
inactive: saracatinib 0.049 | sotrastaurin 0.016 | alvocidib 0.047 | Tubastatin A -0.022 | [1] -0.035 | defactinib -0.003 | rucaparib 0.058 | [2] -0.036 | encorafenib -0.101 | [3] 0.04

PFDN2 (UniProt Q9UHV9)
inactive: saracatinib 0.005 | sotrastaurin 0.037 | alvocidib -0.016 | Tubastatin A -0.012 | [1] -0.011 | defactinib -0.021 | rucaparib -0.01 | [2] -0.041 | encorafenib -0.005 | [3] 0.003

PIGM (UniProt Q9H3S5)
inactive: saracatinib -0.064 | sotrastaurin -0.023 | alvocidib 0.047 | [1] -0.043 | defactinib 0.124 | rucaparib -0.012 | [2] 0.159 | encorafenib 0.292 | [3] 0.103

PLA2G12A (UniProt Q9BZM1)
inactive: saracatinib -0.299 | sotrastaurin -0.072 | alvocidib 0.104 | Tubastatin A 0.065 | [1] 0.246 | rucaparib -0.027 | [2] 0.007 | encorafenib 0.059

PHACTR2 isoform 4 (UniProt O75167)
inactive: saracatinib 0.018 | sotrastaurin 0.201 | alvocidib -0.027 | Tubastatin A 0.02 | [1] -0.053 | defactinib -0.048 | rucaparib -0.015 | [2] -0.002 | encorafenib 0.012 | [3] -0.166

PIK3CD (UniProt O00329)
inactive: saracatinib -0.124 | sotrastaurin -0.106 | Tubastatin A 0.003 | [1] 0.08 | defactinib -0.218 | rucaparib 0.182 | [2] 0.089 | encorafenib -0.019 | [3] -0.062

PGRMC1 (UniProt O00264)
inactive: saracatinib 0.006 | sotrastaurin 0.028 | alvocidib 0.022 | Tubastatin A 0.001 | [1] 0.008 | defactinib 0.008 | rucaparib 0.028 | [2] -0.024 | encorafenib -0.049 | [3] 0.003

PIP5K1A (UniProt Q99755)
inactive: saracatinib -0.125 | sotrastaurin -0.228 | alvocidib 0.039 | Tubastatin A 0.047 | defactinib 0.163 | rucaparib 0.119 | [2] -0.04 | encorafenib 0.038 | [3] 0.09

PICALM (UniProt H0YEY8)
inactive: saracatinib 0.035 | sotrastaurin 0.09 | alvocidib -0.039 | Tubastatin A 0.014 | [1] -0.026 | defactinib -0.017 | rucaparib 0.028 | [2] 0.095 | encorafenib -0.031 | [3] 0.029

PLEC (UniProt Q15149)
inactive: saracatinib -0.078 | sotrastaurin 0.016 | alvocidib 0.115 | Tubastatin A 0.13 | [1] 0.041 | defactinib 0.037 | rucaparib 0.123 | [2] 0.015 | encorafenib 0.007 | [3] -0.026

PLCD1 isoform 2 (UniProt P51178)
inactive: saracatinib -0.026 | sotrastaurin -0.028 | alvocidib -0.106 | Tubastatin A 0.041 | [1] -0.087 | defactinib -0.065 | rucaparib 0.038 | [2] 0.087 | encorafenib 0.011 | [3] 0.021

PFN3 (UniProt P60673)
inactive: saracatinib 0.015 | sotrastaurin -0.448 | alvocidib 0.437 | Tubastatin A -0.022 | defactinib -0.145 | rucaparib -0.272 | [2] -0.118 | encorafenib 0.053 | [3] -0.292

PHC2 isoform 5 (UniProt Q8IXK0)
inactive: saracatinib 0.056 | sotrastaurin -0.055 | alvocidib -0.263 | defactinib 0.012 | rucaparib 0.127 | [2] 0.041 | encorafenib 0.351 | [3] -0.038

PIGB (UniProt Q92521)
inactive: saracatinib -0.035 | sotrastaurin -0.046 | alvocidib 0.035 | Tubastatin A 0.082 | [1] -0.193 | rucaparib -0.007 | [2] -0.027 | encorafenib -0.074

Quoted from the entries so far (2 entries):
PIGQ (UniProt Q9BRB3)
inactive: saracatinib -0.084 | sotrastaurin 0.087 | alvocidib -0.146 | Tubastatin A -0.274 | [1] -0.07 | defactinib -0.108 | rucaparib -0.165 | [2] 0.062 | encorafenib -0.106 | [3] -0.161

PITPNA (UniProt Q00169)
inactive: saracatinib -0.005 | sotrastaurin 0.014 | alvocidib -0.053 | Tubastatin A -0.019 | [1] -0.017 | defactinib -0.015 | rucaparib -0.071 | [2] -0.066 | encorafenib -0.028 | [3] 0.002

Continued:

PGP (UniProt A6NDG6)
inactive: saracatinib 0.023 | sotrastaurin 0.008 | alvocidib -0.05 | Tubastatin A -0.022 | [1] -0.029 | defactinib -0.037 | rucaparib -0.062 | [2] -0.043 | encorafenib -0.005 | [3] 0.001

PIK3R4 (UniProt Q99570)
inactive: saracatinib 0.01 | sotrastaurin 0 | alvocidib -0.031 | Tubastatin A -0.004 | [1] -0.017 | defactinib -0.037 | rucaparib 0.002 | [2] -0.01 | encorafenib -0.005 | [3] 0.003

PFKFB3 isoform 4 (UniProt Q16875)
inactive: saracatinib 0.034 | sotrastaurin -0.026 | alvocidib -0.017 | Tubastatin A 0 | [1] -0.038 | defactinib -0.075 | rucaparib -0.075 | [2] 0.047 | encorafenib 0.027 | [3] -0.024

PFKFB4 (UniProt Q16877)
inactive: saracatinib -0.003 | sotrastaurin 0.044 | alvocidib -0.029 | Tubastatin A -0.026 | [1] -0.08 | defactinib 0.012 | rucaparib 0.032 | [2] -0.001 | encorafenib -0.017 | [3] 0.006

PLA2G4B isoform 6 (UniProt P0C869)
inactive: saracatinib -0.15 | sotrastaurin -0.066 | alvocidib -0.004 | Tubastatin A 0.266 | defactinib 0.035 | [2] 0.006 | [3] -0.002

PEX16 isoform 2 (UniProt Q9Y5Y5)
inactive: saracatinib 0.038 | sotrastaurin -0.02 | Tubastatin A 0.021 | [1] -0.053 | defactinib -0.106 | rucaparib 0.042 | [2] -0.04 | encorafenib 0.001 | [3] 0.05
